Our source for the binding values is article PMC9728996.

Sequences of proteins named here, by UniProt entry; tags and fusion partners are left off. A change or cut given only in a name is not applied to a line headed by its entry.
UniProt Q9VDY6: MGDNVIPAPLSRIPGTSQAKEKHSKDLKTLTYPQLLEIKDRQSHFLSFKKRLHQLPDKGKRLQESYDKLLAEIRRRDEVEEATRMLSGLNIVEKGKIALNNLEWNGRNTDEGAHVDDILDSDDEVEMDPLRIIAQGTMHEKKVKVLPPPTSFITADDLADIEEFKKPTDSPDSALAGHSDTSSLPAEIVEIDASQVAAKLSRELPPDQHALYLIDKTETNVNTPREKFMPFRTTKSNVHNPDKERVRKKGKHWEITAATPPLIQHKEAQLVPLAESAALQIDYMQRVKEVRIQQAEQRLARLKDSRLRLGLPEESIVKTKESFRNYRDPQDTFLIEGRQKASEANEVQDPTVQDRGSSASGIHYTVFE

No constants are given. Whether binding was seen depends on the method and setting. Binding seen in cells or lysates may run through a third protein. Binding can be weak; no strength is given.

For this assay, the target named is Flag-VN-fGdown1 (wild type Gdown1 of Drosophila melanogaster) (Drosophila melanogaster) (UniProt Q9VDY6). The assay can be described thus: split reporter; BiFC in HeLa cells co-transfected with one Flag-VN (Venus 1-172) and one Flag-YC (YFP 173-238) plasmid, 0.25 ug each per well; fixed 24 hr post transfection, confocal microscopy; in some panels mock or 20 nM LMB for 6 hr.

Turning to “Flag-YC-NELF-E (from UniProt P18615-1 1-380)”, the binding result is reported as “binds”.
